# Measurements taken from PubChem BioAssay (EPA / NIEHS).
# Chains of the proteins cited; added tags and fusions are not shown. Lines headed by an entry give the natural chain unless they say otherwise; changes in a name come on top.
# UniProt P04637, whole entry, looked up: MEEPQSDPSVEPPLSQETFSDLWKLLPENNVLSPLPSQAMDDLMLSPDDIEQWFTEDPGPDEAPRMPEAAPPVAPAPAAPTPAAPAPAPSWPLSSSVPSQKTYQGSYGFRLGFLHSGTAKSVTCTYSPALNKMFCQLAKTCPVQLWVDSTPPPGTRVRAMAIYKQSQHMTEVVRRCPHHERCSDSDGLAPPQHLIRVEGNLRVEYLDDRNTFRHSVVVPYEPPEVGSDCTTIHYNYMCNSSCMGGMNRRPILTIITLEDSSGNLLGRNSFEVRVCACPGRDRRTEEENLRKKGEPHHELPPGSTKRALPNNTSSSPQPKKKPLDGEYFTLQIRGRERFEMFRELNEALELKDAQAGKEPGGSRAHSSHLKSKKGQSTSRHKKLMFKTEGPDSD
# UniProt P10827: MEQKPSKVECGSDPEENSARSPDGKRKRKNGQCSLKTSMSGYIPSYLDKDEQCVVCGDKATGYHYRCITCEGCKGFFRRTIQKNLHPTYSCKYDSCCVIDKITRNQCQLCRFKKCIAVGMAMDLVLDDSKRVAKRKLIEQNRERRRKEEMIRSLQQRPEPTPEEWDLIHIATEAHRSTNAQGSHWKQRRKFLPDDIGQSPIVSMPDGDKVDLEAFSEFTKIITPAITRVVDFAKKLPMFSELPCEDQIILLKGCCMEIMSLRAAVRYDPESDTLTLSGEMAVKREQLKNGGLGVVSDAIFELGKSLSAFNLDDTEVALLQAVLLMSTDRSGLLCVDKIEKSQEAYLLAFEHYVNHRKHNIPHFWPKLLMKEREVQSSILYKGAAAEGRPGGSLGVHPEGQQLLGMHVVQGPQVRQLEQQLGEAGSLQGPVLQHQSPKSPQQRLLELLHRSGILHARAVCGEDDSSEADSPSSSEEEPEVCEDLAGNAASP
# UniProt P10828: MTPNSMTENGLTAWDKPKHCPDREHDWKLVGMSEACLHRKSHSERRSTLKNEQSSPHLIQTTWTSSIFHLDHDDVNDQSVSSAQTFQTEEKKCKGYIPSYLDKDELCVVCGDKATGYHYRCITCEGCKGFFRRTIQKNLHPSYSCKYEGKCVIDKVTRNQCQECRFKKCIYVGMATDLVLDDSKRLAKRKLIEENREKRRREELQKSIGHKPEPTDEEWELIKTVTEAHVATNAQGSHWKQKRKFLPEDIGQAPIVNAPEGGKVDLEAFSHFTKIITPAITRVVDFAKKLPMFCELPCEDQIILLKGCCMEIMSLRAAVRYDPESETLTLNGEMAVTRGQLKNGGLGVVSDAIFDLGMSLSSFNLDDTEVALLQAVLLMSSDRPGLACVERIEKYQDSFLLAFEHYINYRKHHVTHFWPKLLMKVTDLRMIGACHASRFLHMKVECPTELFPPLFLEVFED
# Inconclusive results, whose numbers are uncertain, are shown with a selection of clear calls. Potencies of inconclusive entries are doubtful fits and often do not repeat. Calls of active or inactive are those of the source. Rule for the calls: active = hit-call score of the fitted dose curve at least 0.9, where 1 is the maximum; inconclusive = response in the unintended direction; inactive = score below 0.9.
# Tests used:
# [1] = TOX21_p53_BLA_p3_viability: Viability Assessment in the Tox21 HCT-116 p53 Agonism Beta-lactamase Assay, Phase 3 (AID 2283593);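 note: cells exposed to compound for 16 h before reading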
# In short: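 HCT-116 cells (4000/well) rested 5 h at 37C, then got DMSO compounds by pin tool (217-fold dilution) for 16 h at 37C, 5% CO2. After the bla read, CellTiter-Glo was added and luminescence read at 30 min, room temperature.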
# [2] = target: Cellular tumor antigen p53 (Homo sapiens) (UniProt P04637); assay: TOX21_p53_BLA_p3_ratio: Tox21 HCT-116 p53 Agonism Beta-lactamase Assay, Ratio, Phase 3 (AID 2283596)
# In short: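 HCT116 p53-bla cells (4000/well) given compound in DMSO (217-fold dilution) after 5 h, incubated 16 h at 37C. CCF4-AM substrate 2 h at room temperature; 460/530 nm emission ratio, gain fitted against DMSO.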
# [3] = TOX21_p53_BLA_p5_viability: Viability Assessment in the Tox21 HCT-116 p53 Agonism Beta-lactamase Assay, Phase 5 (AID 2283600)
# In short: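 Cells were plated at 4000/well, rested 5 h at 37C, then given compounds in DMSO (217-fold dilution) for 16 h at 37C, 5% CO2. Following the CCF4-AM beta-lactamase read, CellTiter-Glo was added and luminescence was read after 30 min at room temperature.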
# [4] = TOX21_p53_BLA_p4_viability: Viability Assessment in the Tox21 HCT-116 p53 Agonism Beta-lactamase Assay, Phase 4 (AID 2283597);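 note: hits lower the luminescence signal meaning cytotoxicity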
# In short: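 HCT116 p53-bla cells (4000/well) rested 5 h at 37C, then received compounds in DMSO (217-fold dilution) for 16 h at 37C, 5% CO2. CellTiter-Glo was added after the CCF4-AM read, and luminescence was read after 30 min at room temperature.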
# [5] = target: Cellular tumor antigen p53 (Homo sapiens) (UniProt P04637); assay: TOX21_p53_BLA_p5_ratio: Tox21 HCT-116 p53 Agonism Beta-lactamase Assay, Ratio, Phase 5 (AID 2283599)
# In short: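 HCT-116 cells carrying a p53-inducible beta-lactamase reporter were seeded at 4000 cells/well and dosed after 5 h with compound in DMSO (217-fold dilution). After 16 h at 37C, CCF4-AM substrate was added for 2 h, and the 460/530 nm emission ratio was scored as gain-of-signal versus DMSO.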
# [6] = target: Cellular tumor antigen p53 (Homo sapiens) (UniProt P04637); assay: TOX21_p53_BLA_p4_ratio: Tox21 HCT-116 p53 Agonism Beta-lactamase Assay, Ratio, Phase 4 (AID 2283601)
# In short: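 HCT116 cells carrying an inducible beta-lactamase reporter were plated at 4000 cells/well, rested 5 h, then exposed to compounds in DMSO (217-fold dilution) for 16 h at 37C. CCF4-AM substrate was loaded 2 h at room temperature; 460/530 nm emission ratio scored gain-of-signal versus DMSO.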
# THRA (gene 7067) = THRA (gene 7067) (UniProt P10827); assay: TOX21_TRA_COA_Antagonist_Followup_ratio: Tox21 Thyroid Hormone Receptor alpha Antagonism through Coactivator Recruitment Follow-Up Assay, Ratio (AID 2283953)
# In short: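 520:495 nm emission ratio (excitation 340 nm) reports fluorescein-SRC-2 peptide recruitment to GST-TRα LBD by TR-FRET with Tb anti-GST antibody. Values were normalized to DMSO (0%) and T3 control wells (100%); loss of signal indicated antagonism.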
# [7] = TOX21_TRB_BLA_Antagonist_Followup_viability: Viability Assessment in the Tox21 Thyroid Hormone Receptor beta Antagonism Beta-lactamase (BLA) Follow-Up Assay (AID 2283961)
# In short: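 HEK293T cells stably expressing GAL4-DBD/human TRβ-LBD with UAS-bla reporter, 3,000 cells/well in phenol red-free DMEM, 2% charcoal-stripped FBS. Compounds at 11 concentrations in triplicate, 18 h at 37C/5% CO2; viability by CellTiter-Glo luminescence after 30 min at room temperature.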
# THRB (gene 7068) = THRB (gene 7068) (UniProt P10828); assay: TOX21_TRB_COA_Antagonist_Followup_ratio: Tox21 Thyroid Hormone Receptor beta Antagonism through Coactivator Recruitment Follow-Up Assay, Ratio (AID 2283967)
# In short: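 Cell-free TR-FRET coactivator recruitment with GST-tagged TRβ LBD (5.0 nM) and fluorescein-labeled SRC-2 peptide (200 nM) detected by terbium anti-GST antibody (2 nM). The 520:495 nm emission ratio was normalized to DMSO (0%) and T3 (100%).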
smiles,measurement,setting,value
O=C(c1ccccc1)c1cc(Cl)ccc1O,outcome,[1],inactive
same,outcome,[2],inactive
same,AC50,[3],inconclusive: 44.1 µM
CCC(C)[O-].CCC(C)[O-].CCOC(=O)/C=C(/C)[O-].[Al+3],outcome,[1],inactive
same,AC50,[4],inconclusive: 85.1 µM
CC(C)(C)OC(=O)c1cccc(N)c1,outcome,[1],inactive
same,outcome,[2],inactive
same,AC50,[3],inconclusive: 47.1 µM
CCCC(C)CC (configuration not stated),AC50,[1],inconclusive: 45.5 µM
same,AC50,[2],inconclusive: 45.5 µM
same,AC50,[5],inconclusive: 45.5 µM
same,AC50,[6],inconclusive: 45.5 µM
NC(=O)c1ccncc1,AC50,[1],inconclusive: 47.8 µM
same,AC50,[2],inconclusive: 80 µM
same,AC50,[3],inconclusive: 47.8 µM
Cc1cccc(C)c1NC(=O)C(C)N (configuration not stated),AC50,[1],inconclusive: 10.3 µM
same,outcome,[2],inactive
same,outcome,[5],inactive
same,AC50,[3],inconclusive: 10.3 µM
CC[C@H]1NC(=O)[C@@H](NC(=O)c2ncccc2O)[C@@H](C)OC(=O)[C@H](c2ccccc2)NC(=O)[C@@H]2CC(=O)CCN2C(=O)[C@H](Cc2ccccc2)N(C)C(=O)[C@@H]2CCCN2C1=O,AC50,[1],inconclusive: 35.8 µM
same,AC50,[2],inconclusive: 12.8 µM
same,AC50,[6],inconclusive: 37.6 µM
COc1cc(C)c(Cc2cnc(N)nc2N)cc1OC,outcome,[1],inactive
same,AC50,[2],inconclusive: 23 µM
same,AC50,[3],inconclusive: 23 µM
same,AC50,[6],inconclusive: 23 µM
FC(F)(F)C(F)(F)C(F)(F)C(F)(F)C(F)(F)F,AC50,[1],inconclusive: 23 µM
same,AC50,[4],inconclusive: 1.71 µM
CN=C(N)NC(=O)Nc1c(C)cccc1C,AC50,[1],inconclusive: 23 µM
same,outcome,[2],inactive
same,AC50,[5],inconclusive: 23 µM
same,AC50,[3],inconclusive: 23 µM
same,AC50,[6],inconclusive: 23 µM
CN(C)c1ccc(C2(c3ccc(N(C)C)cc3)OC(=O)c3cc(N(C)C)ccc32)cc1,AC50,[1],inconclusive: 82 µM
same,AC50,[2],active: 13.5 µM
same,outcome,[5],inactive
same,AC50,[6],active: 38.5 µM
CCN1CCC[C@H]1CNC(=O)c1cc(S(N)(=O)=O)ccc1OC,outcome,[1],inactive
same,AC50,[2],inconclusive: 23 µM
same,AC50,[5],inconclusive: 37 µM
same,outcome,[6],inactive
COc1ccc(/C=C/C(=O)Nc2ccccc2C(=O)O)cc1OC,AC50,[1],inconclusive: 6.01 µM
same,AC50,[2],inconclusive: 23 µM
same,AC50,[5],inconclusive: 23 µM
same,AC50,THRA (gene 7067),inconclusive: 19.2 µM
same,AC50,[7],inconclusive: 4.61 µM
same,AC50,THRB (gene 7068),inconclusive: 12 µM

# Quoted at random: 4 records from the list.
smiles,measurement,setting,value
CC(C)(C)OC(=O)c1cccc(N)c1,outcome,[2],inactive
CN=C(N)NC(=O)Nc1c(C)cccc1C,AC50,[1],inconclusive: 23 µM
COc1ccc(/C=C/C(=O)Nc2ccccc2C(=O)O)cc1OC,AC50,[5],inconclusive: 23 µM
CN(C)c1ccc(C2(c3ccc(N(C)C)cc3)OC(=O)c3cc(N(C)C)ccc32)cc1,AC50,[2],active: 13.5 µM
